# Data from the supplement of paper PMC8728848.
# The other results are listed elsewhere or left out.
# B1: MCL (Mus musculus), Q9Z2H6 (protein)
# chain: MWLEESQMKSKGTRHPQLIPCVFAVVSISFLSACFISTCLVTHHYFLRWTRGSVVKLSDYHTRVTCIREEPQPGATGGTWTCCPVSWRAFQSNCYFPLNDNQTWHESERNCSGMSSHLVTINTEAEQNFVTQLLDKRFSYFLGLADENVEGQWQWVDKTPFNPHTVFWEKGESNDFMEEDCVVLVHVHEKWVWNDFPCHFEVRRICKLPGITFNWKPSK
# Columns and labels:
# Assay in all cases: glycan array binding signal (z-score within array); higher = stronger binding
# Settings in all cases: glycan notation: IUPAC condensed, linker removed
# [1] = target: Fuc(a1-3)[GalNAc(b1-4)]GlcNAc
# In short: (§1)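 Columns mapping to the same glycan were averaged after glycan names were converted to IUPAC-condensed notation. The data come from 3228 arrays in the Consortium for Functional Glycomics database, limited to those with an available protein sequence. Binding is reported as a within-array Z-score averaged across arrays of one protein sequence and across linkers.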
# Fuc(a1-4)GlcNAc = target: Fuc(a1-4)GlcNAc
# In short: as §1
# Fuc(b1-3)GlcNAc = target: Fuc(b1-3)GlcNAc
# In short: as §1
# Gal(a1-2)Gal = target: Gal(a1-2)Gal
# In short: as §1
# Gal(a1-3)Gal = target: Gal(a1-3)Gal
# In short: as §1
# Gal(a1-3)Gal(b1-3)GlcNAc = target: Gal(a1-3)Gal(b1-3)GlcNAc
# In short: as §1
# Gal(a1-3)Gal(b1-4)Glc = target: Gal(a1-3)Gal(b1-4)Glc
# In short: as §1
# Gal(a1-3)Gal(b1-4)GlcNAc = target: Gal(a1-3)Gal(b1-4)GlcNAc
# In short: as §1
# [2] = target: Gal(a1-3)Gal(b1-4)[Fuc(a1-3)]GlcNAc
# In short: as §1
# Gal(a1-3)GalNAc = target: Gal(a1-3)GalNAc
# In short: as §1
# [3] = target: Gal(a1-3)[Gal(a1-4)]Gal(b1-4)GlcNAc
# In short: as §1
# Gal(a1-4)Gal(b1-4)Glc = target: Gal(a1-4)Gal(b1-4)Glc
# In short: as §1
# Gal(a1-4)Gal(b1-4)GlcNAc = target: Gal(a1-4)Gal(b1-4)GlcNAc
# In short: as §1
# Gal(a1-4)GlcNAc = target: Gal(a1-4)GlcNAc
# In short: as §1
# Gal(a1-6)Glc = target: Gal(a1-6)Glc
# In short: as §1
# Gal(b1-2)Gal = target: Gal(b1-2)Gal
# In short: as §1
# Gal(b1-3)Gal = target: Gal(b1-3)Gal
# In short: as §1
# Gal(b1-3)Gal(b1-4)GlcNAc = target: Gal(b1-3)Gal(b1-4)GlcNAc
# In short: as §1
# Gal(b1-3)GalNAc = target: Gal(b1-3)GalNAc
# In short: as §1
# [4] = target: Gal(b1-3)GalNAc(b1-3)Gal(a1-4)Gal(b1-4)Glc
# In short: as §1
# [5] = target: Gal(b1-3)GalNAc(b1-4)Gal(b1-4)Glc
# In short: as §1
# [6] = target: Gal(b1-3)GalNAc(b1-4)[Neu5Ac(a2-3)]Gal(b1-4)Glc
# In short: as §1
# Gal(b1-3)GlcNAc = target: Gal(b1-3)GlcNAc
# In short: as §1
# [7] = target: Gal(b1-3)GlcNAc(b1-2)Man(a1-3)[Gal(b1-3)GlcNAc(b1-2)Man(a1-6)]Man(b1-4)GlcNAc(b1-4)GlcNAc
# In short: as §1
# [8] = target: Gal(b1-3)GlcNAc(b1-3)Gal(b1-3)GlcNAc
# In short: as §1
# [9] = target: Gal(b1-3)GlcNAc(b1-3)Gal(b1-4)Glc
# In short: as §1
# [10] = target: Gal(b1-3)GlcNAc(b1-3)Gal(b1-4)GlcNAc
# In short: as §1
# [11] = target: Gal(b1-3)[Fuc(a1-4)]GlcNAc
# In short: as §1
# [12] = target: Gal(b1-3)[Fuc(a1-4)]GlcNAc(b1-3)Gal(b1-3)[Fuc(a1-4)]GlcNAc
# In short: as §1
# [13] = target: Gal(b1-3)[Fuc(a1-4)]GlcNAc(b1-3)Gal(b1-4)GlcNAc
# In short: as §1
# [14] = target: Gal(b1-3)[Fuc(a1-4)]GlcNAc(b1-3)Gal(b1-4)[Fuc(a1-3)]GlcNAc
# In short: as §1
# [15] = target: Gal(b1-3)[GlcNAc(b1-6)]GalNAc
# In short: as §1
# [16] = target: Gal(b1-3)[Neu5Ac(a2-6)]GalNAc
# In short: as §1
# [17] = target: Gal(b1-3)[Neu5Ac(a2-6)]GlcNAc(b1-6)Gal(b1-4)Glc
# In short: as §1
# [18] = target: Gal(b1-3)[Neu5Ac(b2-6)]GalNAc
# In short: as §1
# [19] = target: Gal(b1-4)GalNAc(a1-3)[Fuc(a1-2)]Gal(b1-4)GlcNAc
# In short: as §1
# [20] = target: Gal(b1-4)GalNAc(b1-3)[Fuc(a1-2)]Gal(b1-4)GlcNAc
# In short: as §1
# Gal(b1-4)Glc = target: Gal(b1-4)Glc
# In short: as §1
# Gal(b1-4)Glc6S = target: Gal(b1-4)Glc6S
# In short: as §1
# Gal(b1-4)GlcNAc = target: Gal(b1-4)GlcNAc
# In short: as §1
# [21] = target: Gal(b1-4)GlcNAc(a1-6)Gal(b1-4)GlcNAc
# In short: as §1
# [22] = target: Gal(b1-4)GlcNAc(b1-2)Man(a1-3)[Gal(b1-4)GlcNAc(b1-2)Man(a1-6)]Man(b1-4)GlcNAc(b1-4)GlcNAc
# In short: as §1
# [23] = target: Gal(b1-4)GlcNAc(b1-3)Gal(b1-3)GlcNAc
# In short: as §1
# [24] = target: Gal(b1-4)GlcNAc(b1-3)Gal(b1-4)Glc
# In short: as §1
# [25] = target: Gal(b1-4)GlcNAc(b1-3)Gal(b1-4)GlcNAc
# In short: as §1
binder,measurement,setting,value
B1,glycan array binding signal (z-score),[1],-0.351
same,glycan array binding signal (z-score),Fuc(a1-4)GlcNAc,-0.113
same,glycan array binding signal (z-score),Fuc(b1-3)GlcNAc,-0.475
same,glycan array binding signal (z-score),Gal(a1-2)Gal,0.462
same,glycan array binding signal (z-score),Gal(a1-3)Gal,-0.18
same,glycan array binding signal (z-score),Gal(a1-3)Gal(b1-3)GlcNAc,2.63
same,glycan array binding signal (z-score),Gal(a1-3)Gal(b1-4)Glc,1.88
same,glycan array binding signal (z-score),Gal(a1-3)Gal(b1-4)GlcNAc,3.06
same,glycan array binding signal (z-score),[2],-0.415
same,glycan array binding signal (z-score),Gal(a1-3)GalNAc,0.01
same,glycan array binding signal (z-score),[3],0.605
same,glycan array binding signal (z-score),Gal(a1-4)Gal(b1-4)Glc,-0.218
same,glycan array binding signal (z-score),Gal(a1-4)Gal(b1-4)GlcNAc,-0.316
same,glycan array binding signal (z-score),Gal(a1-4)GlcNAc,0.384
same,glycan array binding signal (z-score),Gal(a1-6)Glc,0.889
same,glycan array binding signal (z-score),Gal(b1-2)Gal,-0.362
same,glycan array binding signal (z-score),Gal(b1-3)Gal,-0.472
same,glycan array binding signal (z-score),Gal(b1-3)Gal(b1-4)GlcNAc,0.642
same,glycan array binding signal (z-score),Gal(b1-3)GalNAc,0.573
same,glycan array binding signal (z-score),[4],-0.509
same,glycan array binding signal (z-score),[5],-0.375
same,glycan array binding signal (z-score),[6],0.748
same,glycan array binding signal (z-score),Gal(b1-3)GlcNAc,0.168
same,glycan array binding signal (z-score),[7],-0.92
same,glycan array binding signal (z-score),[8],-0.691
same,glycan array binding signal (z-score),[9],-0.164
same,glycan array binding signal (z-score),[10],-0.814
same,glycan array binding signal (z-score),[11],0.741
same,glycan array binding signal (z-score),[12],0.16
same,glycan array binding signal (z-score),[13],0.707
same,glycan array binding signal (z-score),[14],-0.107
same,glycan array binding signal (z-score),[15],0.199
same,glycan array binding signal (z-score),[16],-0.888
same,glycan array binding signal (z-score),[17],-0.69
same,glycan array binding signal (z-score),[18],-0.021
same,glycan array binding signal (z-score),[19],-0.269
same,glycan array binding signal (z-score),[20],-0.655
same,glycan array binding signal (z-score),Gal(b1-4)Glc,-0.038
same,glycan array binding signal (z-score),Gal(b1-4)Glc6S,-0.033
same,glycan array binding signal (z-score),Gal(b1-4)GlcNAc,-0.235
same,glycan array binding signal (z-score),[21],-0.798
same,glycan array binding signal (z-score),[22],-0.706
same,glycan array binding signal (z-score),[23],-0.161
same,glycan array binding signal (z-score),[24],0.482
same,glycan array binding signal (z-score),[25],1.47

# Pulled one by one from the list above (3):
binder,measurement,setting,value
B1,glycan array binding signal (z-score),[14],-0.107
same,glycan array binding signal (z-score),Gal(b1-2)Gal,-0.362
same,glycan array binding signal (z-score),[1],-0.351
